Reference: US20140120095A1
These are yes or no findings as the source states them, for the method shown. Some binding calls cover weakened binding; strength is not graded here.

By UniProt entry, the sequences of proteins in these tests, tags left out. Where a name states a change or a piece, a line headed by the entry shows the natural chain unless it says otherwise.
UniProt Q9NR61: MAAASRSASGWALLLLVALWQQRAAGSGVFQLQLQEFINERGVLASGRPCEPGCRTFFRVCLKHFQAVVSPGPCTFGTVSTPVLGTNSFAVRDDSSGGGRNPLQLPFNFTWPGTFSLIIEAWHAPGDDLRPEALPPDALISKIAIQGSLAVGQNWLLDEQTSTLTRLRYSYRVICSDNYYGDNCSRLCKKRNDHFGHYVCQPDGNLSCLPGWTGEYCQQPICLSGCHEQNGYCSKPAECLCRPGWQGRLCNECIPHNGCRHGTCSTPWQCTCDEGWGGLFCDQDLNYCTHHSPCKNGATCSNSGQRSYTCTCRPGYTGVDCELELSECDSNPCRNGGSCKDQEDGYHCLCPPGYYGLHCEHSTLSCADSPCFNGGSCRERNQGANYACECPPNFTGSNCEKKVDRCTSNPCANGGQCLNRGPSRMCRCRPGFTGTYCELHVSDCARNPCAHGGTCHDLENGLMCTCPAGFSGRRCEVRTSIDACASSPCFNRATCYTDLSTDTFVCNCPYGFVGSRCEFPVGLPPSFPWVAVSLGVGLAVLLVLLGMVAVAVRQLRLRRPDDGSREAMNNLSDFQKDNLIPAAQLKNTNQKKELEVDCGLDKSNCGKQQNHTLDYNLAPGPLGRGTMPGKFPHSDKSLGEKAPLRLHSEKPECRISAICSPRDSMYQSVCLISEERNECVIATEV

What was measured:
[1] = biological target: recombinant human DLL4 (C-terminally His-tagged extracellular domain, R&D Systems) (human) (UniProt Q9NR61); experiment: binding ELISA on recombinant human DLL4, OD 450 nm
[2] = biological target: recombinant human DLL4 (C-terminally His-tagged extracellular domain, R&D Systems) (human) (UniProt Q9NR61); experiment: binding ELISA on coated recombinant human DLL4 (Example 5.8, Example 7), OD 450 nm
[3] = biological target: cynomolgus DLL4 overexpressed on cells (cynomolgus); experiment: FACS titration on HEK293-cDLL4 cells, MCF
[4] = biological target: human DLL4 overexpressed on cells (human) (UniProt Q9NR61); experiment: FACS titration on HEK293-hDLL4 cells, MCF
[5] = biological target: recombinant human DLL4 (human) (UniProt Q9NR61); experiment: SPR binning, hDLL4 captured by anti-DLL4 Fab

B1: DLLBII129D08 (VHH, not shown: small tags and cut ends)
VHH: EVQLVESGGGLVQAGGSLRLSCAASGRTFSSYAMAWYRQAPGKEREYVAAIRWSGGTAYYADSVQGRFTISRDNAKNTVYLQMNSLKPEDTAVYYCANRAPDTRLEPYLYDYWGQGTQVTVSS
With B1 the binding [1] was “binds”.

B2: DLLBII129E11 (VHH, not shown: small tags and cut ends)
VHH: EVQLVESGGGLVQAGGSLRLSCAASGRTFSSYAMAWYRQAPGKEREYVAAIRWSGGTAYYADSVQGRFTISRDNAKNTVYLQMNSLKPEDTAVYYCANRAPDTRLRPYLYDYWGQGTQVTVSS
With B2 the binding [1] was “binds”.

B3: DLLBII115A05 (VHH, not shown: small tags and cut ends)
VHH: EVQLVESGGGLVQPGGSLRLSCAASGFTFGSYDMSWVRRSPGKGPEWVSSINSGGGSTYYADFVKGRFTISRDNAKNTLYLQMNSLKPEDTAVYYCAADRYIRARQGDYWGAYEYDYWGQGTQVTVSS
B3 was tested, and the binding [2] was “binds”.

B4: DLLBII133A09 (VHH, not shown: small tags and cut ends)
VHH: EVQLVESGGGLVQPGGSLRLSCAASGFTFGSYDMSWVRRSPGKGPEWVSAINSGGGSTYYADYVKGRFTISRDNAKNTLYLQMNSLKPEDTAVYYCAADRYIWARQGEYWGAYAYDYWGQGTQVTVSS
In the case of B4, the binding [2] is reported as “binds”.

B5: DLLBII133G05 (VHH, not shown: small tags and cut ends)
VHH: EVQLVESGGGLVQPGGSLRLSCAASGFTFGSYDMSWVRRSPGKGPEWVSAINSGGGSTYYTDYVKGRFTISRDNAKNTLYLQMNSLKPEDTAVYYCAADRYIWARQGEYWGAYAYDYWGQGTQVTVSS
For B5, the binding [2] was “binds”.

B6: DLLBII136C07 (VHH, not shown: small tags and cut ends)
VHH: EVQLVESGGGLVQPGGSLRLSCAASGFTFGSYDMSWVRRSPGKGPEWVSSINSGGGSTYYADYVKGRFTISRDNAKNTLYLQMNSLKPEDTAVYYCAADRYIWARQGEYWGAYEYDYWGQGTQVTVSS
In the case of B6, the binding [2] is reported as “binds”.

B7: DLLBII015 (VHH, not shown: small tags and cut ends)
VHH: EVQLVESGGGLVQPGGSLRLSCAASGFTIGSYDMSWVRRSPGKGPEWVSAINSGGGSTYYADYVKGRFTISRDNAKNTLYLQMNSLKPEDTAVYYCAADRYIWARQGEYWGAYAYDYWGQGTQVTVSS
For B7, the binding [2] was “binds”.

B8: DLLBII56H08 (VHH)
VHH: EVQLVESGGGLVQPGGSLRLSCAASGFTFDDYAIGWFRQAPGKEPEEISCISSSGGITYYADSVKGRFTISRDNAKNTVYLQMNSLKPEDTAVYYCATPGIAACRGIHYTGQGTQVTVSS
For B8, the binding [3] was “binds” and the binding [4] was “binds”.

B9: DLLBII101G08 (VHH, not shown: small tags and cut ends)
VHH: EVQLVESGGGLVQAGGSLRLSCAASGRTFSSYAMAWFRQAPGKEREFVAAIRWSGGTAYYADSVQGRFTISRDNAKNTVYLQMNSLKPEDTAVYYCANRAADTRLGPYEYDYWGQGTQVTVSS
In the case of B9, the binding [1] is reported as “binds”.

B10: DLLBII6B11 (VHH)
VHH: EVQLVESEGGLVQAGGSLRLSCAASGSTFSSYAMGWYRQAPGKQRELVAVISNGGITNYPNSVKGRFTISRDNAKNTVYLQMNSLKPEDTAVYYCFYSGSYYYPTDVHEYDYWGQGTQVTVSS
In the case of B10, the binding [5] is reported as “binds”.

B11: DLLBII104G01 (VHH)
VHH: EVQLVESGGGLVQAGGSLRLSCAASGFTFDDYAIGWFRQAPGKEREGVSCISSSDGSTYYADSVKGRFTISSDNAKNTVYLQMNSLKPEDTAVYYCATAWCDSSWYRSFVGYWGQGTQVTVSS
For B11, the binding [5] was “binds”.
